Experimental findings from PubChem BioAssay AID2685 (National Center for Advancing Translational Sciences (NCATS), 2010) are described below.

The list shows a part of the results. Shown are side measurements of this screen, not its main read-out; they come without a call. The list favours compounds with an active or inconclusive main result. Potencies come from curve fits of mixed quality, noted in brackets.

The nature of this assay: qHTS Assay for Lipid Storage Modulators in Drosophila S3 Cells.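 On cell number change: cells counted by Cell Tracker Red CMTPX staining in the red channel.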 The conditions noted are these: BODIPY lipid droplet fluorescence, 18-24 h; for cell number change: measured here: cell count max response, cells fed with added oleic acid. In a few lines: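 Laser-scanning cytometry quantifies lipid droplet accumulation (500–530 nm total intensity; droplet/cell object ratio) in oleic acid-fed (400 uM added) Drosophila S3 cells treated with a concentration series. 20 uM Triacsin C defined 100% inhibition.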
Background: Quantitative high-throughput screening tests each substance at several concentrations.

The mark [1] stands for this setting: measured here: cell number channel AC50, cells fed with added oleic acid.
Where [2] appears, read: measured here: lipid fluorescence (Fed channel) AC50, cells fed with added oleic acid.

As a reminder, the AC50 is the concentration giving half of the maximal activity seen. High values mean activity only at high concentration, low ones activity at low concentration.

As for `Cc1ccc(OCC(=O)NC(C)c2ccccc2)c([N+](=O)[O-])n1` (stereo not given), the cell number change is 49.6%. For the same compound, under setting [1], the AC50 is 6.51 µM [rising, partial curve, poor fit]. For the same compound, the AC50 under setting [2] is 6.51 µM [rising, partial curve, poor fit].
For `CCOc1ccc(-n2c(SCc3nc(-c4ccc(C)cc4)no3)nnc2-c2ccncc2)cc1`, the AC50 by setting is: under setting [1], 6.51 µM [rising, partial curve, poor fit]; under setting [2], 6.51 µM [rising, single point].
Consider `CC(C)CCn1c(=O)c2c(nc3n2CCCN3Cc2ccccc2)n(C)c1=O`, for which the cell number change was -5.63%. Further, under setting [2], the AC50 was 29.1 µM [falling, single point].
`COc1cc(CNn2cn[nH]c2=S)cc(Br)c1OCc1ccccc1F`: the cell number change is 1.96%. In addition, the AC50 under setting [2] is 1.41 µM [rising, partial curve].
In the case of `COc1ccc(CNC(=O)N2CCc3ccccc3C2)cc1`, the cell number change is 4.17%. Besides, the AC50 under setting [2] is 6.51 µM [rising, single point].
`COc1cc(CN2CCN(Cc3ccc(C)cc3)CC2)c([N+](=O)[O-])cc1OC`: the cell number change worked out at 11.2%. The AC50 under setting [2] is 3.26 µM [rising, single point].
Take `COCCNC(=O)c1cc(-c2ccc(-c3ccccc3)cc2)nc2ccccc12`: the cell number change is -10.3%. The AC50 under setting [2] was 25.9 µM [rising, single point].
As to `CCOC(=O)/C=C/COc1ccccc1[N+](=O)[O-]`, the cell number change stood at 27.7%. Besides, under setting [1], the AC50 was 3.26 µM [falling, single point].
As to `O=S(=O)(Nc1nc2ccccc2nc1-[n+]1ccccc1)c1ccc(Cl)cc1`, the cell number change worked out at 24.8%. Also, the AC50 under setting [2] was 0.00517 µM [falling, full curve, poor fit].
In the case of `COc1ccccc1-n1cnnc1SCC(=O)c1cc(C)n(Cc2cccs2)c1C`, the cell number change was -16.1%. The AC50 under setting [2] is 0.116 µM [falling, single point].
As to `COC(=O)c1sc(-c2ccccc2)cc1NC(C)=O`, the cell number change worked out at 45.7%. The AC50 under setting [1] was 29.1 µM [rising, single point].
On to `COC(=O)c1c(-c2ccc(OC)cc2)sc2cc3c(cc12)OCO3`, for which the cell number change is -19.3%. The AC50 under setting [1] was 0.58 µM [falling, partial curve].
Regarding `CCN1CCN(C(=S)Nc2ccc3nc4n(c(=O)c3c2)CCCCC4)CC1`, the cell number change is 28.3%. For the same compound, the AC50 under setting [2] was 2.59 µM [rising, full curve, poor fit].
On to `Cc1ccc(S(=O)(=O)N2[C@@H](c3cccc(Cl)c3)C(C(=O)O)=CC[C@H]2c2ccc3c(c2)OCO3)cc1`, for which the cell number change is 31.9%. Under setting [1], the AC50 was 0.184 µM [rising, full curve, poor fit]. For the same compound, the AC50 under setting [2] is 11.6 µM [rising, single point].
Turning to `COc1ccccc1C(=O)NCC(=O)N=Nc1c(O)n(C(C)C)c2ccccc12`, the cell number change is -8.96%. The AC50 under setting [2] is 0.651 µM [falling, full curve, poor fit].
Turning to `C=CCOC(=O)C1=C[C@H](C2CCCCC2)[C@@H](CCCO)[C@H](OCC)O1`, the cell number change was -34.7%. Under setting [1], the AC50 is 29.1 µM [falling, single point]. The AC50 under setting [2] was 29.1 µM [falling, single point].
Take `CSCCC(NC(N)=O)C(=O)Nc1cccc(C#N)c1` (stereo not given): the cell number change worked out at 18.9%.
Regarding `CCCNC(=O)c1ccccc1SCc1c(C)noc1C`, the cell number change was 21.1%.
As to `O=C(c1snnc1-c1ccccc1)N1CCOCC1`, the cell number change came to 26.6%. Besides, under setting [2], the half-maximal activity concentration (AC50) is 6.51 µM [rising, single point].
`Cc1cc(NS(=O)(=O)c2ccc(NC(=O)Nc3cccc(C(F)(F)F)c3)cc2)no1`: the cell number change is -12.7%. Under setting [2], the AC50 is 6.51 µM [rising, single point].
With `O=C(CN(CCc1ccccc1)C(=O)CN1C(=O)COc2ccccc21)NCc1ccco1`, the AC50 under setting [2] was 2.59 µM [rising, partial curve].
Consider `Fc1cccc(Cl)c1CSc1nnc(CN2CCOCC2)n1-c1ccccc1`, for which the cell number change turned out to be 4.07%. In addition, the AC50 under setting [2] was 32.6 µM [rising, single point].
With `Nc1nonc1-n1nnc(C(=O)N/N=C/c2ccccc2Cl)c1COc1ccc(F)cc1`, the AC50 by setting is: under setting [1], 0.103 µM [rising, full curve]; under setting [2], 0.092 µM [rising, full curve, poor fit].
Take `O=C(Nc1cccnc1)c1ccc(Cl)c(S(=O)(=O)N2CCc3ccccc32)c1`: the cell number change was 33.9%. Also, the AC50 under setting [1] is 0.82 µM [rising, full curve, poor fit].
On to `O=S(=O)(c1ccc(SCc2cccc(Cl)c2)nc1)N1CCCC1`, for which the cell number change was -5.57%. Under setting [2], the AC50 is 0.0058 µM [falling, full curve, poor fit].
For the compound `Nc1nc(Nc2ccccc2)n[nH]1`, the cell number change came out at 21.2%. Besides, the AC50 under setting [2] was 0.116 µM [falling, full curve, poor fit].
`Cc1cc(C)c2cc(CN(CCO)C(=O)Nc3ccc(F)cc3)c(=O)[nH]c2c1`: the AC50 by setting is: under setting [1], 1.84 µM [rising, partial curve]; under setting [2], 1.84 µM [rising, partial curve].
As for `COc1ccc(C(=O)OCC(=O)Nc2sccc2C(N)=O)cc1[N+](=O)[O-]`, the cell number change was 18.9%. Moreover, under setting [2], the AC50 is 1.3 µM [rising, full curve, poor fit].
Regarding `COc1ccc(S(=O)(=O)N2CCCC2C(=O)Nc2ccc(O)cc2)cc1` (stereo not given), the cell number change is -71.6%. Moreover, the AC50 under setting [1] is 29.1 µM [falling, single point].
`CN1CCN(NC(=O)Nc2cc(Cl)cc(Cl)c2)CC1`: the concentration at half-maximal activity (AC50) under setting [2] was 4.11 µM [falling, full curve].
`Cc1ccc(NC(=O)c2oc3ccc(S(=O)(=O)N4CCOCC4)cc3c2C)c(C)c1`: the cell number change amounted to 3.02%.
As to `COc1cccc(-c2cc(C(=O)N3CCCc4ccccc43)no2)c1`, the half-maximal activity concentration (AC50) is 6.51 µM [rising, single point] under setting [1] and 23.1 µM [rising, single point] under setting [2].
For `C[C@H]1CN=C(Nc2ccccc2)N1CCC1CCCC1`, the cell number change was found to be 14.7%. Under setting [2], the AC50 was 29.1 µM [falling, single point].
For `Cc1ccc(NC(=O)CSc2nnc(C3CC3)n2CC2CCCO2)cc1C` (stereo not given), the cell number change was 17.9%. Under setting [2], the AC50 is 25.9 µM [rising, partial curve, poor fit].
Consider `CN(CC(=O)Nc1c(Cl)cccc1Cl)C(=O)c1ccc(-n2cncn2)c([N+](=O)[O-])c1`, for which the cell number change is -14.1%. Besides, under setting [2], the AC50 is 6.51 µM [rising, single point].
Consider `CCCCc1ccc(N2C(=NC(=O)C3CCCO3)SC3CS(=O)(=O)CC32)cc1` (stereo not given), for which the cell number change amounted to 50.5%. In addition, the AC50 under setting [1] is 1.84 µM [rising, partial curve, poor fit].
As for `COc1ccc(C(=O)CSc2nnc(Cn3cnc4ccccc43)o2)cc1`, the cell number change is -35.6%. For the same compound, the AC50 under setting [1] is 13 µM [falling, partial curve]. For the same compound, the AC50 under setting [2] is 23.1 µM [falling, partial curve, poor fit].
On to `O=C(CCn1nc(-c2ccccc2)c2ccccc2c1=O)N1CCN(c2ccccc2)CC1`, for which the cell number change was -14.1%. Moreover, under setting [2], the AC50 was 0.259 µM [rising, full curve, poor fit].
In the case of `CC1=CCC2C(=O)N(c3ccc(C)cc3)C(=O)C2C1` (stereo not given), the AC50 under setting [2] was 0.116 µM [rising, full curve, poor fit].
Consider `CCCCNC(=O)Nc1nc2ccccc2s1`, for which the cell number change is -12.6%.
Regarding `CCNc1nc(Cl)nc(NCCOc2ccc(C)cc2)n1`, the half-maximal activity concentration (AC50) under setting [1] is 6.51 µM [falling, single point] and the AC50 under setting [2] was 6.51 µM [falling, single point].
Regarding `Cc1cc(-c2nnc(-c3ccccc3)c(-c3ccccc3)n2)c(C)o1`, the cell number change came to 8.63%. Also, the AC50 under setting [2] is 0.116 µM [rising, single point].
On to `CC(C)Cn1c(N)c(C(=O)COC(=O)c2ccc([N+](=O)[O-])o2)c(=O)n(C)c1=O`, for which the cell number change was -45.1%. Under setting [1], the half-maximal activity concentration (AC50) was 32.6 µM [falling, partial curve, poor fit].
`O=C(/C=C/Nc1ccccc1O)c1ccco1`: the cell number change is -1.17%. Further, under setting [2], the AC50 was 0.13 µM [rising, full curve, poor fit].
On to `O=C(NCc1ccccc1)C1CCCN1C(=O)Nc1ccccc1[N+](=O)[O-]` (stereo not given), for which the AC50 under setting [2] was 0.651 µM [falling, partial curve, poor fit].
For `COc1cc2c(cc1OC)CN(C(=O)CN(C)S(=O)(=O)c1ccc(NC(C)=O)cc1)CC2`, the cell number change was 2.63%.
In the case of `Cc1ccccc1-c1nc(CN2CCN(C(=O)c3ccco3)CC2)c(C)o1`, the AC50 under setting [2] is 2.24 µM [rising, partial curve].
As for `Cc1ccc(NC(=O)c2c(-c3ccccc3Cl)noc2C)nc1`, the cell number change worked out at 23.2%. Also, under setting [2], the AC50 is 0.13 µM [rising, full curve].
With `COc1ccc(OCCOC(=O)CNC(=O)c2ccc(Cl)cc2Cl)cc1`, the cell number change is -21.9%. The AC50 under setting [2] is 0.651 µM [rising, full curve].
For the compound `CCCN(CCC)c1nc(-c2ccccn2)nc2ccccc12`, the cell number change was -41.5%. Under setting [2], the AC50 was 10.3 µM [falling, single point].
Turning to `O=C(NC1CCCCC1)N1CCN(c2ccc([N+](=O)[O-])cc2)CC1`, the cell number change was -28.7%. Under setting [2], the AC50 is 29.1 µM [falling, single point].
`O=C(NCc1ccccn1)c1ccc(NC(=O)c2ccco2)cc1`: the cell number change came out at 7.42%. Moreover, the AC50 under setting [2] was 2.59 µM [rising, full curve, poor fit].
For the compound `O=C(Nc1ccc(Oc2cccnc2)cc1)C1CCN(Cc2ccc(F)cc2)CC1`, the cell number change was found to be 24.1%.
As to `COC(=O)C1CCN(CC(=O)NC(=O)NC2CCCCC2)CC1`, the cell number change amounted to 11%.
For the compound `O=C1C2C3C=CC(C3)C2C(=O)N1c1ccncc1` (stereo not given), the cell number change was determined as 18%. Further, under setting [2], the AC50 was 4.11 µM [rising, partial curve].
On to `O=[N+]([O-])c1cccc(-c2c(-c3ccccc3)ncc3cc(F)ccc23)c1`, for which the cell number change was -17.7%.
In the case of `CC1CC(C)CN(C(=O)c2cccc(S(=O)(=O)N3c4ccccc4CC3C)c2)C1` (stereo not given), the cell number change turned out to be 66.5%. Moreover, the AC50 under setting [1] was 11.6 µM [rising, partial curve].
Take `Cc1nc2ccccc2nc1N1CCC(C)CC1`: the AC50 runs as follows: under setting [1], 1.03 µM [falling, full curve, poor fit]; under setting [2], 0.651 µM [falling, full curve].
In the case of `COc1ccc(-c2csc3nc[nH]c(=O)c23)cc1`, the cell number change came out at 45.1%. Moreover, the AC50 under setting [1] was 16.4 µM [rising, single point].
In the case of `Nc1ccc(C(=O)N/N=C/c2cccc(Oc3ccccc3)c2)cc1`, the cell number change was -22.4%.
